Assay results taken from patent US20070281327A1 (published 2007).
These are yes or no findings as the source states them, for the method shown. Binding calls can cover weak binding; strength is not graded here.

Biological target: monkey Mpl expressed on CHO cells (CHO-monkey Mpl) (monkey)
Assay: flow cytometry on CHO-monkey Mpl cells

binding: binds
B1: VA130 IgG (mouse monoclonal anti-human Mpl antibody VA130) (antibody, V domains shown)
VH: QVQLQQSGPELVKPGASVKISCKASGYAFSSSWMNWVKQRPGKGLEWIGRIYPGDGDTNYNGKFKGKATLTADKSSSTAYIQLSSLTSEDSAVYFCARGYADYSFAYWGQGTLVTVSA
VL: DIVMTQAAPSVPVTPGESVSISCRSSKSLLHSNGNTYLYWFLQRPGQSPQLLIYRMSNLASGVPDRFSGSGSGTAFTLRISRVEAEDVGVYYCMQHLEYPYTFGSGTKLEIK
notes: Whole mouse IgG from a hybridoma; also called VA130 antibody; VA130 anti-human Mpl antibody
